Results reported in patent US20130316376A1.
These are yes or no findings as the source states them, for the method shown.

The chains behind the UniProt entries cited, without tags or fusion partners. Residues count along the entry.
UniProt P02768, residues 25-609: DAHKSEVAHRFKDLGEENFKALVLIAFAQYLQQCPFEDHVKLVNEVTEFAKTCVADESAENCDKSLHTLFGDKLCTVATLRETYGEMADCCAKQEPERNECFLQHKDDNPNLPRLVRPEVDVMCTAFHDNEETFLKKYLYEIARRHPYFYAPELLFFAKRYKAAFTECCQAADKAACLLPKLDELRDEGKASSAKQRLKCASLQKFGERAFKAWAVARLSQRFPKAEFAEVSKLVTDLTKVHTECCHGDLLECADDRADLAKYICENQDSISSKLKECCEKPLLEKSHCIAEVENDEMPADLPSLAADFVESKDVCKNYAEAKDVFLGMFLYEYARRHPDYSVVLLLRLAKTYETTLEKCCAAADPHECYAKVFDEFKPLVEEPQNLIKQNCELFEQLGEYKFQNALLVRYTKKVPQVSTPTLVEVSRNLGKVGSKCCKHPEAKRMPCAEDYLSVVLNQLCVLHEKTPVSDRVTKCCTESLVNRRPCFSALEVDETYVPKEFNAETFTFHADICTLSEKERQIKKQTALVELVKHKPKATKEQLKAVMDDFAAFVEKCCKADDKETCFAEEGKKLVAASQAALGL

Key:
[1] = target: albumin from human blood plasma (human) (UniProt P02768); test: films, low pH elution, non-reducing SDS-PAGE
[2] = target: albumin from human blood plasma (human) (UniProt P02768); test: fiber, low pH elution, non-reducing SDS-PAGE
[3] = target: albumin from human blood plasma (human) (UniProt P02768); test: films used once before and stored 29 days in PBS, low pH elution, non-reducing SDS-PAGE

B1: Rep4CT (SEQ ID NO: 20) (protein)
chain: GPNSGQGGYGGLGQGGYGQGAGSSAAAAAAAAAAAAGGQGGQGQGGYGQGSGGSAAAAAAAAAAAAAAAGRGQGGYGQGSGGNAAAAAAAAAAAAAAAGQGGQGGYGRQSQGAGSAAAAAAAAAAAAAAGSGQGGYGGQGQGGYGQSSASASAAASAASTVANSVSRLSSPSAVSRVSSAVSSLVSNGQVNMAALPNIISNISSSVSASAPGASGCEVIVQALLEVITALVQIVSSSSVGYINPSAVNQITNVVANAMAQVMG
binding [1]: no binding (tested: human blood plasma (1:5 dilution)) | binding [2]: no binding (tested: human blood plasma (1:5 dilution)) | binding [3]: no binding (tested: human blood plasma (1:5 dilution))
